US20210087268A1
These are yes or no findings as the source states them, for the method shown. Some binding calls cover weakened binding; strength is not graded here.

Target: RsTIGIT-Fc (Macaca mulatta)
Assay: ELISA, antigen coated on the plate, 30 ng antibody per well (one amount), absorbance 450 nm

B1: S64 (IgG1 form) (antibody, V domains shown)
VH: EVQLLESGGGLVQPGGSLRLSCAASGFTFSNYAMSWVRQAPGKGLEWVSAIYPGGGSIYYADSVKGRFTISRDNSKNTLYLQMNSLRAEDTAVYYCAKAIRTCSLSHCYYYYGMDVWGQGTLVTVSS
VL: QSVLTQPPSASGTPGQRVTISCSCSSSNIGNNAVSWYQQLPGTAPKLLIYYDSNRPSGVPDRFSGSKSGTSASLAISGLRSEDEADYYCGSWDYSLSAYVFGGGTKLTVLG
With B1 the binding was “binds”.
